PubChem BioAssay AID493246 | Drosophila RNAi Screening Center | 2011

Screen: 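Genome-wide search for dsRNAs that reduce cell number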 (primary screen)
Cells: Drosophila Kc and S2R+ cells
Knock-down reagent: long dsRNA against Drosophila genes
Read-out: 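Raw, unnormalised count of remaining cells in each well; per-plate z-scores of cell number underlie the calls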
Scale: Kc cell number and S2R+ cell number: higher = more cells remaining
Active means: 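Counted as a hit if cell number falls by a z-score of at least 3 within its plate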
The deposit covers about 21,000 reagents; below is an unselected part of those that have a named target and a result. Of all reagents, 429 (2%) are marked active. 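Values are raw and not normalised between plates; calls rest on per-plate z-scores that were not deposited.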 Names joined by + are all predicted targets of the reagent. Reagent sequences are not shown. Not given: the amount of reagent, the time to read-out.

| Gene | DRSC id | Kc cell number, rep 1 | Kc cell number, rep 2 | S2R+ cell number, rep 1 | S2R+ cell number, rep 2 | activity call |
| --- | --- | --- | --- | --- | --- | --- |
| lig | DRSC07246 | 1.36e6 | 1.47e6 | 7.58e5 | 8.32e5 | inactive |
| lig | DRSC07247 | 1.41e6 | 1.62e6 | 9.47e5 | 1.09e6 | inactive |
| yps | DRSC11411 | 1.24e6 | 1.30e6 | 1.32e6 | 1.38e6 | inactive |
| Kdm3 | DRSC16393 | 1.51e6 | 1.59e6 | 1.23e6 | 1.34e6 | inactive |
| CG10466 | DRSC02060 | 1.64e6 | 1.65e6 | 1.24e6 | 2.68e5 | inactive |
| Ilp8 | DRSC10076 | 1.60e6 | 1.90e6 | 1.36e6 | 1.50e6 | inactive |
| Rhau | DRSC03200 | 1.10e6 | 1.27e6 | 8.91e5 | 6.94e5 | inactive |
| mIF2 | DRSC14510 | 1.66e6 | 1.70e6 | 1.09e6 | 1.23e6 | inactive |
| Est-6 | DRSC11162 | 1.29e6 | 1.34e6 | 1.28e6 | 1.37e6 | inactive |
| Ack | DRSC08135 | 1.49e6 | 1.33e6 | 9.61e5 | 1.17e6 | inactive |
| Vm26Ab | DRSC03473 | 1.52e6 | 1.55e6 | 1.11e6 | 1.26e6 | inactive |
| CG2218 | DRSC15428 | 5.48e5 | – | 8.86e5 | – | inactive |
| Upf3 | DRSC04092 | 1.35e6 | 1.43e6 | 1.06e6 | 1.11e6 | inactive |
| Asciz | DRSC08421 | 1.43e6 | 1.44e6 | 1.05e6 | 1.16e6 | inactive |
| wts | DRSC17096 | 9.19e5 | 9.77e5 | 4.40e5 | 5.03e5 | active |
| CG42597 | DRSC03681 | 5.19e5 | – | 8.21e5 | – | inactive |
| Usp12-46 | DRSC16175 | 1.46e6 | 1.54e6 | 1.01e6 | 1.15e6 | inactive |
| stil | DRSC07699 | 1.39e6 | 1.38e6 | 1.19e6 | 1.29e6 | inactive |
| Tspo | DRSC00533 | 1.29e6 | 1.46e6 | 1.10e6 | 1.17e6 | inactive |
| CG9632 | DRSC16528 | 1.40e6 | 1.41e6 | 1.07e6 | 1.18e6 | inactive |
| e(y)2 | DRSC19640 | 1.59e6 | 1.50e6 | 9.70e5 | 1.04e6 | inactive |
| Vha13 | DRSC16895 | 1.25e6 | 1.21e6 | 9.28e5 | 9.89e5 | inactive |
| CG15395 | DRSC00409 | 1.47e6 | 1.50e6 | 1.00e6 | 1.14e6 | inactive |
| Acox57D-p | DRSC04560 | 1.39e6 | 1.47e6 | 1.19e6 | 1.27e6 | inactive |
| CG11037 | DRSC11631 | 1.33e6 | 1.46e6 | 1.33e6 | 1.34e6 | inactive |
| Or74a | DRSC11245 | 1.46e6 | 1.38e6 | 1.09e6 | 1.29e6 | inactive |
| CG6912 | DRSC16132 | 1.31e6 | 1.47e6 | 1.21e6 | 1.39e6 | inactive |
| D19B | DRSC11134 | 1.66e6 | 1.62e6 | 8.86e5 | 9.64e5 | inactive |
| CG1598 | DRSC06598 | 1.58e6 | 1.70e6 | 1.29e6 | 1.45e6 | inactive |
| eIF4E7 | DRSC17782 | 1.55e6 | 1.60e6 | 1.10e6 | 1.20e6 | inactive |
| eIF4E7 | DRSC18623 | 1.45e6 | 1.47e6 | 1.02e6 | 1.18e6 | inactive |
| 128up | DRSC05027 | 1.31e6 | 1.37e6 | 1.18e6 | 1.15e6 | inactive |
| CG42337 | DRSC11686 | 1.44e6 | 1.42e6 | 1.32e6 | 1.37e6 | inactive |
| CG42337 | DRSC11687 | 1.13e6 | 1.07e6 | 7.56e5 | 8.37e5 | active |
| dpa | DRSC07604 | 1.64e6 | 1.66e6 | 1.36e6 | 1.56e6 | inactive |
| dyl | DRSC08466 | 1.30e6 | 1.40e6 | 1.08e6 | 1.01e6 | inactive |
| dyl | DRSC08467 | 1.54e6 | 1.50e6 | 1.08e6 | 1.41e6 | inactive |
| Mnn1 | DRSC03368 | 1.60e6 | 1.51e6 | 1.22e6 | 1.42e6 | inactive |

Reprinted from the listing (8 entries):
| Gene | DRSC id | Kc cell number, rep 1 | Kc cell number, rep 2 | S2R+ cell number, rep 1 | S2R+ cell number, rep 2 | activity call |
| --- | --- | --- | --- | --- | --- | --- |
| CG15395 | DRSC00409 | 1.47e6 | 1.50e6 | 1.00e6 | 1.14e6 | inactive |
| Acox57D-p | DRSC04560 | 1.39e6 | 1.47e6 | 1.19e6 | 1.27e6 | inactive |
| CG11037 | DRSC11631 | 1.33e6 | 1.46e6 | 1.33e6 | 1.34e6 | inactive |
| Or74a | DRSC11245 | 1.46e6 | 1.38e6 | 1.09e6 | 1.29e6 | inactive |
| CG6912 | DRSC16132 | 1.31e6 | 1.47e6 | 1.21e6 | 1.39e6 | inactive |
| D19B | DRSC11134 | 1.66e6 | 1.62e6 | 8.86e5 | 9.64e5 | inactive |
| CG1598 | DRSC06598 | 1.58e6 | 1.70e6 | 1.29e6 | 1.45e6 | inactive |
| eIF4E7 | DRSC17782 | 1.55e6 | 1.60e6 | 1.10e6 | 1.20e6 | inactive |

Next entries follow.
| Gene | DRSC id | Kc cell number, rep 1 | Kc cell number, rep 2 | S2R+ cell number, rep 1 | S2R+ cell number, rep 2 | activity call |
| --- | --- | --- | --- | --- | --- | --- |
| CG11566 (retired record) + stg1 | DRSC20473 | 1.23e6 | 1.40e6 | 7.43e5 | 8.13e5 | inactive |
| CG11566 (retired record) + stg1 | DRSC20481 | 1.72e6 | 1.77e6 | 1.17e6 | 1.27e6 | inactive |
| CG11566 (retired record) + stg1 | DRSC20482 | 1.52e6 | 1.49e6 | 1.13e6 | 1.25e6 | inactive |
| CG11566 (retired record) + stg1 | DRSC20483 | 1.58e6 | 1.59e6 | 1.13e6 | 1.25e6 | inactive |
| Esyt2 | DRSC16082 | 1.52e6 | 1.64e6 | 1.14e6 | 1.22e6 | inactive |
| dgt1 | DRSC15301 | 4.55e5 | – | 8.27e5 | – | inactive |
| Osi7 | DRSC12176 | 1.58e6 | 1.70e6 | 1.34e6 | 1.42e6 | inactive |
| Amnionless | DRSC00317 | 1.60e6 | 1.62e6 | 1.19e6 | 1.34e6 | inactive |
| CG13912 | DRSC08381 | 1.39e6 | 1.31e6 | 1.04e6 | 1.21e6 | inactive |
| Sodq | DRSC15924 | 1.31e6 | 1.34e6 | 9.59e5 | 1.05e6 | inactive |
| mts | DRSC03574 | 1.08e6 | 1.23e6 | 4.12e5 | 4.64e5 | inactive |
| CG8032 | DRSC16365 | 1.39e6 | 1.51e6 | 1.20e6 | 1.29e6 | inactive |
| TTLL3A | DRSC02143 | 1.56e6 | 1.60e6 | 1.26e6 | 1.43e6 | inactive |
| CG14074 | DRSC10079 | 1.66e6 | 1.75e6 | 1.32e6 | 1.41e6 | inactive |
| CG8728 | DRSC07251 | 1.53e6 | 1.57e6 | 9.96e5 | 1.04e6 | inactive |
| CG31327 | DRSC13019 | 1.41e6 | 1.65e6 | 1.09e6 | 1.29e6 | inactive |
| CG6790 | DRSC16117 | 1.56e6 | 1.67e6 | 1.36e6 | 1.33e6 | inactive |
| flfl | DRSC16474 | 1.34e6 | 1.34e6 | 1.04e6 | 1.09e6 | inactive |
| Dlip2 | DRSC12346 | 1.56e6 | 1.61e6 | 1.41e6 | 1.51e6 | inactive |
| CG32590 | DRSC19594 | 1.59e6 | 1.64e6 | 1.04e6 | 1.27e6 | inactive |
| CG13063 | DRSC09946 | 1.57e6 | 1.53e6 | 1.18e6 | 1.34e6 | inactive |
| CG16756 | DRSC18115 | 1.48e6 | 1.59e6 | 9.74e5 | 1.17e6 | inactive |
| CG10993 | DRSC19362 | 1.58e6 | 1.61e6 | 1.10e6 | 1.19e6 | inactive |
| CG7423 | DRSC20044 | 1.50e6 | 1.50e6 | 1.05e6 | 1.21e6 | inactive |
| Acsf3 | DRSC18146 | 1.65e6 | 1.72e6 | 1.13e6 | 1.35e6 | inactive |
| CG15376 (retired record) | DRSC18046 | 1.56e6 | 1.53e6 | 9.26e5 | 1.02e6 | inactive |
| CG30050 | DRSC05342 | 1.44e6 | 1.62e6 | 1.04e6 | 1.21e6 | inactive |
| GstD2 | DRSC16684 | 1.43e6 | 1.39e6 | 1.25e6 | 1.34e6 | inactive |
| CG17065 | DRSC20544 | 1.57e6 | 1.64e6 | 1.10e6 | 1.23e6 | inactive |
| Sytalpha | DRSC02869 | 1.66e6 | 1.68e6 | 1.34e6 | 1.53e6 | inactive |
| sala | DRSC03605 | 1.71e6 | 1.66e6 | 1.23e6 | 1.47e6 | inactive |
| Pgm2b | DRSC05978 | 1.52e6 | 1.60e6 | 1.23e6 | 1.35e6 | inactive |
| Nepl20 | DRSC14878 | 1.54e6 | 1.58e6 | 1.10e6 | 1.18e6 | inactive |
| l(2)37Bb | DRSC02088 | 1.26e6 | 1.41e6 | 1.02e6 | 1.14e6 | inactive |
| sax | DRSC07675 | 1.45e6 | 1.51e6 | 1.11e6 | 1.18e6 | inactive |
| Swt1 | DRSC20028 | 1.46e6 | 1.54e6 | 1.03e6 | 1.24e6 | inactive |
| CG4611 | DRSC10434 | 1.28e6 | 1.38e6 | 1.16e6 | 1.15e6 | inactive |
